# According to PubChem BioAssay AID504444 (National Center for Advancing Translational Sciences (NCATS), 2011):
# Screen size: about 360,000 compounds; about 7,500 (2.1%) were called active. Inconclusive means that the source gave no clear call. Such entries were picked first, then a sample of the others. Calls follow the shape of the dose curve; as a rule, active = well fitted inhibition curve with a large enough effect; inconclusive = small, poorly fitted or top-dose-only effect, or effect the other way; inactive = flat fitted curve, though single readings scatter. Potencies beside an inconclusive call are fits to weak or partial responses and may not hold up.
# Assay: Nrf2 qHTS screen for inhibitors; also: nearly all actives have a fitted effect of over 60% in size
# Details: A549 ARE-Fluc reporter, luciferase luminescence, 18-24 h; series mostly up to 46 µM
# Method in brief: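 Two sequential reads on A549 ARE_Fluc cells exposed to compound for 18-24 h: a CellTiter-Fluor fluorescence read for viability, then a luciferase luminescence read for Nrf2/ARE activity.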
# Potency is read from the fitted curve at half-maximal effect.
row,SMILES,Potency
1,COc1ccc(OC)c(-n2nnnc2SCC(=O)Nc2ccc(C(=O)N3CCCCC3)cc2)c1,active: 18.4 µM
2,O=C(Cc1ccc(Cl)cc1)NN1C(=O)c2ccccc2C1=O,inactive
3,COc1cccc(-c2nc(NCCN3CCOCC3)c3ccccc3n2)c1O,"inconclusive: 16.4 µM [falling, single point]"
4,Cc1ccc(C)c(OCCn2cc(C(=O)c3cccs3)c3ccccc32)c1,"inconclusive: 20.6 µM [falling, single point]"
5,CCOc1ccccc1CNC(=O)C(C)n1nc(C)c2c(C)n(-c3ccccc3)nc2c1=O (stereo not drawn),"inconclusive: 16.4 µM [falling, single point]"
6,CC1Sc2ccc(S(=O)(=O)N3CCC(C(=O)N4CCN(C)CC4)CC3)cc2NC1=O (stereo not drawn),inactive
7,O=C(Cc1cccs1)Nc1cccc(-c2nnc(-c3ccco3)o2)c1,inactive
8,Cc1cc(C)n(-c2ccc(C(=O)OCC(=O)c3c(N)n(C)c(=O)n(C)c3=O)cc2)n1,"inconclusive: 9.2 µM [falling, partial curve, poor fit]"
9,COc1cc2c(cc1OC)C(c1ccccc1C(F)(F)F)CC(=O)N2 (stereo not drawn),"inconclusive: 9.2 µM [falling, partial curve, poor fit]"
10,Cc1cc(C(=O)NNC(=S)Nc2cccc(C(F)(F)F)c2)nn1C,"inconclusive: 20.6 µM [falling, single point]"
11,O=C(Nc1cccc(F)c1)c1ccc(S(=O)(=O)NCC2CCCO2)cc1 (stereo not drawn),active: 20.6 µM
12,CC(C)NC(=O)c1ccc(C(C)C)cc1,"inconclusive: 20.6 µM [activator, single point]"
13,COc1cc2c(cc1NC(=S)Nc1cccc(C(F)(F)F)c1)oc1ccccc12,inactive
14,O=C(NNC(=O)c1ccc(Br)s1)c1cccc(S(=O)(=O)N2CCCC2)c1,"inconclusive: 23.1 µM [falling, partial curve, poor fit]"
15,Cc1cc(C(=O)N2CCN(c3ccc(F)cc3)CC2)c2c(C)nn(-c3cccc(Cl)c3C)c2n1,"inconclusive: 8.2 µM [falling, single point]"
16,COc1ccc(S(=O)(=O)n2[nH]c(=O)c(CCO)c2C)cc1,"inconclusive: 13 µM [activator, partial curve, poor fit]"
17,COc1cc(/C=C2\SC(=S)N(Nc3ccccc3)C2=O)ccc1O,"inconclusive: 29.1 µM [activator, single point]"
18,COCCn1c(SCC(=O)Nc2cccc(OC)c2)nc2c(oc3ccccc32)c1=O,"inconclusive: 23.1 µM [falling, partial curve, poor fit]"

# A draw from above in order of number of heavy atoms, ascending.
row,SMILES,Potency
6,CC1Sc2ccc(S(=O)(=O)N3CCC(C(=O)N4CCN(C)CC4)CC3)cc2NC1=O (stereo not drawn),inactive
18,COCCn1c(SCC(=O)Nc2cccc(OC)c2)nc2c(oc3ccccc32)c1=O,"inconclusive: 23.1 µM [falling, partial curve, poor fit]"
5,CCOc1ccccc1CNC(=O)C(C)n1nc(C)c2c(C)n(-c3ccccc3)nc2c1=O (stereo not drawn),"inconclusive: 16.4 µM [falling, single point]"
